PubChem BioAssay AID1159578 | Peter MacCallum Cancer Centre | 2015
This is one part, drawn at random, of about 18,000 reagents. In the full data, about 1,030 (5.7%) are marked active. 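Inactive calls also include pools with fewer than 3300 nuclei, whose migration was not assessed.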 Raw values are not corrected between plates. Not all columns of the deposit are shown.

- Screen: 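Knock-downs that alter how fast lymphatic endothelial cells migrate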 (primary screen)
- System: human lymphatic endothelial cells
- Reagents: siRNA pool against human genes, 40 nM
- Time to read-out: 48 h after transfection
- Read-out: 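High-content imaging of dye-stained cells in a scratch assay measures filled wound area and nuclei per well; duplicate means given as ratio to mock and robust z-score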
- Direction: migration robust z-score: higher = faster migration into the scratch; nuclei per well: higher = more cells in the well
- Call rule: 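Pools averaging fewer than 3300 nuclei are never called; remaining pools count as changed when migration robust z lies outside -2 to 2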
- Meaning of the calls: active = migration changed; inactive = no migration change, or too few cells

no.	gene symbol	migration robust z-score	migration class with cell-count check	nuclei per well, duplicate mean	Outcome
1	SOS2 (GeneID 6655)	-0.59	migration z between -2 and 2; enough cells	5242	inactive
2	ZNF774 (GeneID 342132)	0.03	migration z between -2 and 2; enough cells	6206	inactive
3	MAP3K8 (GeneID 1326)	-2.16	migration z below -2; enough cells	4724	active
4	ANXA8L1 (GeneID 728113)	-0.47	migration z between -2 and 2; enough cells	5741	inactive
5	PFKFB2 (GeneID 5208)	0.7	migration z between -2 and 2; enough cells	6218	inactive
6	SGO2 (GeneID 151246)	0.06	migration z between -2 and 2; enough cells	5653	inactive
7	HBZ (GeneID 3050)	1.31	migration z between -2 and 2; enough cells	6792	inactive
8	C1orf226 (GeneID 400793)	-0.52	migration z between -2 and 2; enough cells	5658	inactive
9	CWF19L1 (GeneID 55280)	0.24	migration z between -2 and 2; enough cells	5562	inactive
10	TRIM51EP (GeneID 399940)	-0.52	migration z between -2 and 2; enough cells	6550	inactive
11	YTHDF3 (GeneID 253943)	-0.28	migration z between -2 and 2; enough cells	4429	inactive
12	TAF12 (GeneID 6883)	-0.86	migration z between -2 and 2; enough cells	6592	inactive
13	VIT (GeneID 5212)	0.3	migration z between -2 and 2; enough cells	6522	inactive
14	ZNF20 (GeneID 7568)	0.2	migration z between -2 and 2; enough cells	5910	inactive
15	VRK1 (GeneID 7443)	-0.18	migration z between -2 and 2; enough cells	5862	inactive
16	AGAP3 (GeneID 116988)	-1.9	migration z between -2 and 2; enough cells	3339	inactive
17	TFF2 (GeneID 7032)	0.66	migration z between -2 and 2; enough cells	5911	inactive
18	SUPT3H (GeneID 8464)	0.42	migration z between -2 and 2; enough cells	5436	inactive
19	ZNF319 (GeneID 57567)	-2.46	migration z below -2; enough cells	4682	active
20	TMPRSS11D (GeneID 9407)	-0.49	migration z between -2 and 2; enough cells	5334	inactive
21	OR4X1 (GeneID 390113)	-1.68	migration z between -2 and 2; enough cells	5571	inactive
22	ENPP7 (GeneID 339221)	-1.3	migration z between -2 and 2; enough cells	5646	inactive
23	CALD1 (GeneID 800)	0.37	migration z between -2 and 2; enough cells	6100	inactive
24	DCBLD1 (GeneID 285761)	1.55	migration z between -2 and 2; enough cells	5437	inactive
25	MFSD6 (GeneID 54842)	0.1	migration z between -2 and 2; enough cells	5910	inactive
26	VNN3P (GeneID 55350)	-0.21	migration z between -2 and 2; enough cells	4866	inactive

Records above whose target name starts with A or a (2):
gene symbol	migration robust z-score	migration class with cell-count check	nuclei per well, duplicate mean	Outcome
ANXA8L1 (GeneID 728113)	-0.47	migration z between -2 and 2; enough cells	5741	inactive
AGAP3 (GeneID 116988)	-1.9	migration z between -2 and 2; enough cells	3339	inactive

Further records follow.
no.	gene symbol	migration robust z-score	migration class with cell-count check	nuclei per well, duplicate mean	Outcome
27	WASHC4 (GeneID 23325)	0.16	migration z between -2 and 2; enough cells	5064	inactive
28	TMEM25 (GeneID 84866)	-0.58	migration z between -2 and 2; enough cells	6288	inactive
29	CCL7 (GeneID 6354)	-1.22	migration z between -2 and 2; enough cells	4913	inactive
30	ACR (GeneID 49)	-1.03	migration z between -2 and 2; enough cells	5360	inactive
31	PSKH2 (GeneID 85481)	-0.24	migration z between -2 and 2; enough cells	5349	inactive
32	RFXANK (GeneID 8625)	0.57	migration z between -2 and 2; enough cells	4998	inactive
33	AOX1 (GeneID 316)	0.1	migration z between -2 and 2; enough cells	5102	inactive
34	PHKG1 (GeneID 5260)	1.9	migration z between -2 and 2; enough cells	5448	inactive
35	TTC7A (GeneID 57217)	-2.88	under 3300 nuclei; migration not judged	2338	inactive
36	TSR1 (GeneID 55720)	-0.24	migration z between -2 and 2; enough cells	3830	inactive
37	COPS9 (GeneID 150678)	-0.58	migration z between -2 and 2; enough cells	5928	inactive
38	CDCA3 (GeneID 83461)	-0.78	migration z between -2 and 2; enough cells	5615	inactive
39	CCNT1 (GeneID 904)	-0.13	migration z between -2 and 2; enough cells	4578	inactive
40	UBE2V1 (GeneID 7335)	2.39	migration z above 2; enough cells	6743	active
41	SCGB1C1 (GeneID 147199)	-3.89	migration z below -2; enough cells	6060	active
42	TEX35 (GeneID 84066)	-0.7	migration z between -2 and 2; enough cells	5977	inactive
43	SDCBP2 (GeneID 27111)	1.03	migration z between -2 and 2; enough cells	4919	inactive
44	GPR179 (GeneID 440435)	1.19	migration z between -2 and 2; enough cells	6463	inactive
45	ZMYM3 (GeneID 9203)	0.54	migration z between -2 and 2; enough cells	5166	inactive
46	HTN1 (GeneID 3346)	0.04	migration z between -2 and 2; enough cells	4397	inactive
47	PPP1R2 (GeneID 5504)	0.9	migration z between -2 and 2; enough cells	6117	inactive
48	SIX5 (GeneID 147912)	-0.7	migration z between -2 and 2; enough cells	4996	inactive
49	RPL37A (GeneID 6168)	-2.16	migration z below -2; enough cells	3854	active
50	DRICH1 (GeneID 51233)	-0.67	migration z between -2 and 2; enough cells	5956	inactive
51	EIF2A (GeneID 83939)	0.29	migration z between -2 and 2; enough cells	5664	inactive
52	CXorf38 (GeneID 159013)	1.62	migration z between -2 and 2; enough cells	6205	inactive
53	NPEPPS (GeneID 9520)	-0.52	migration z between -2 and 2; enough cells	5574	inactive
54	P2RY10 (GeneID 27334)	-0.5	migration z between -2 and 2; enough cells	6428	inactive
55	NAT10 (GeneID 55226)	0.1	migration z between -2 and 2; enough cells	5817	inactive
56	ANKMY2 (GeneID 57037)	0.66	migration z between -2 and 2; enough cells	6593	inactive
57	KIF19 (GeneID 124602)	-0.62	migration z between -2 and 2; enough cells	5566	inactive
